The record followed here is article PMC4985284, “Monochromatic multicomponent fluorescence sedimentation velocity for the study of high-affinity protein interactions” (eLife, 2016).

Sequences of proteins named here, by UniProt entry; tags and fusion partners are left off. Residues count along the entry.
UniProt P19492, residues 23-408: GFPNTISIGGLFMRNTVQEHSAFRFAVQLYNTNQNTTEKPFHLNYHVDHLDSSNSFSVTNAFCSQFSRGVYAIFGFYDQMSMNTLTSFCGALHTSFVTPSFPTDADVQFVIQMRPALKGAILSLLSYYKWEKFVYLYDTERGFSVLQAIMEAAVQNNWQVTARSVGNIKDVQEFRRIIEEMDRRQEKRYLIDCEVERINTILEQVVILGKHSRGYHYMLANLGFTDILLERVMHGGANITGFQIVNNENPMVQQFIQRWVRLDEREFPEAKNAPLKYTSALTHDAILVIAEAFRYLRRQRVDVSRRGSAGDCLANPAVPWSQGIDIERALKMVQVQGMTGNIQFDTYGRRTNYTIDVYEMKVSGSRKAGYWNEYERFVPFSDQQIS

No constants are given. Whether binding was seen depends on the method and setting.

For this assay, the target named is fusion protein of GluA3-ATD and rsEGFP2 (rsEGFP2-GluA3) (UniProt P19492). As to the kind of experiment: AUC; FDS-SV in blinking configuration, rsEGFP2-GluA3 at concentrations between 1 nM and 30 nM, 50,000 rpm, 20°C; 0.1 mg/ml unlabeled BSA added; both purified.

“fusion protein of GluA3-ATD and rsEGFP2 (rsEGFP2-GluA3) (from UniProt P19492 23-408) (domain or fragment)”: the binding entry is listed as “no binding (tested: up to 30 nM)”.
